Our source for the binding values is publication doi:10.1101/2025.09.08.674948.

Assay [1] deals with HLA-A2-TurboID (human). Put plainly: proximity labelling.
Assay [2] has as its target HLA-A2-BioID2 (human). The assay can be described thus: proximity labelling.

No constants are given. Whether binding was seen depends on the method and setting. Binding seen in cells or lysates may run through a third protein. These calls come from enrichment with a bait or labelling near it, and not all partners need be listed.

B1: TIGAR (enzyme, UniProt Q9NQ88 1-270)
chain: MARFALTVVRHGETRFNKEKIIQGQGVDEPLSETGFKQAAAAGIFLNNVKFTHAFSSDLMRTKQTMHGILERSKFCKDMTVKYDSRLRERKYGVVEGKALSELRAMAKAAREECPVFTPPGGETLDQVKMRGIDFFEFLCQLILKEADQKEQFSQGSPSNCLETSLAEIFPLGKNHSSKVNSDSGIPGLAASVLVVSHGAYMRSLFDYFLTDLKCSLPATLSRSELMSVTPNTGMSLFIINFEEGREVKPTVQCICMNLQDHLNGLTETR
Take B1: in assay [1], the binding entry is “binds”.

B2: MGAT2 (enzyme, UniProt Q10469 1-447)
chain: MRFRIYKRKVLILTLVVAACGFVLWSSNGRQRKNEALAPPLLDAEPARGAGGRGGDHPSVAVGIRRVSNVSAASLVPAVPQPEADNLTLRYRSLVYQLNFDQTLRNVDKAGTWAPRELVLVVQVHNRPEYLRLLLDSLRKAQGIDNVLVIFSHDFWSTEINQLIAGVNFCPVLQVFFPFSIQLYPNEFPGSDPRDCPRDLPKNAALKLGCINAEYPDSFGHYREAKFSQTKHHWWWKLHFVWERVKILRDYAGLILFLEEDHYLAPDFYHVFKKMWKLKQQECPECDVLSLGTYSASRSFYGMADKVDVKTWKSTEHNMGLALTRNAYQKLIECTDTFCTYDDYNWDWTLQYLTVSCLPKFWKVLVPQIPRIFHAGDCGMHHKKTCRPSTQSAQIESLLNNNKQYMFPETLTISEKFTVVAISPPRKNGGWGDIRDHELCKSYRRLQ
Consider B2, for which, in assay [2], the binding result is listed as “binds”.

B3: MGAT1 (enzyme, UniProt P26572 1-445)
chain: MLKKQSAGLVLWGAILFVAWNALLLLFFWTRPAPGRPPSVSALDGDPASLTREVIRLAQDAEVELERQRGLLQQIGDALSSQRGRVPTAAPPAQPRVPVTPAPAVIPILVIACDRSTVRRCLDKLLHYRPSAELFPIIVSQDCGHEETAQAIASYGSAVTHIRQPDLSSIAVPPDHRKFQGYYKIARHYRWALGQVFRQFRFPAAVVVEDDLEVAPDFFEYFRATYPLLKADPSLWCVSAWNDNGKEQMVDASRPELLYRTDFFPGLGWLLLAELWAELEPKWPKAFWDDWMRRPEQRQGRACIRPEISRTMTFGRKGVSHGQFFDQHLKFIKLNQQFVHFTQLDLSYLQREAYDRDFLARVYGAPQLQVEKVRTNDRKELGEVRVQYTGRDSFKAFAKALGVMDDLKSGVPRAGYRGIVTFQFRGRRVHLAPPLTWEGYDPSWN
As to B3, the binding result in assay [2] was “binds”.

B4: SLC37A4 (protein, UniProt O43826 1-429)
chain: MAAQGYGYYRTVIFSAMFGGYSLYYFNRKTFSFVMPSLVEEIPLDKDDLGFITSSQSAAYAISKFVSGVLSDQMSARWLFSSGLLLVGLVNIFFAWSSTVPVFAALWFLNGLAQGLGWPPCGKVLRKWFEPSQFGTWWAILSTSMNLAGGLGPILATILAQSYSWRSTLALSGALCVVVSFLCLLLIHNEPADVGLRNLDPMPSEGKKGSLKEESTLQELLLSPYLWVLSTGYLVVFGVKTCCTDWGQFFLIQEKGQSALVGSSYMSALEVGGLVGSIAAGYLSDRAMAKAGLSNYGNPRHGLLLFMMAGMTVSMYLFRVTVTSDSPKLWILVLGAVFGFSSYGPIALFGVIANESAPPNLCGTSHAIVGLMANVGGFLAGLPFSTIAKHYSWSTAFWVAEVICAASTAAFFLLRNIRTKMGRVSKKAE
For B4, the binding result in assay [1] is “binds”.
